Measurements taken from PubChem BioAssay AID1347426 (Functional Genomics Laboratory (NCATS/FGL), 2020).
Out of some 31,000 sequences screened, about 1,400 (4.5%) were called active.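 Rule for the calls: active = median seed-adjusted z-score above 1 or below -1; inactive = the rest.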 Some of the results follow.

Experiment: Novel Modifiers of Survival Motor Neuron (SMN) Protein: Gene Identification via Genome-wide siRNA Screen;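 note: luminescence tracks full-length SMN protein made from the SMN2 reporter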
Settings: HEK293T SMN2-luciferase reporter, siRNA knockdown, 72 h; actives lie on both sides
Summary of the method: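 Genome-wide siRNA screen (10418 genes, 3 siRNAs each, 1 pmol per well) by reverse transfection in HEK293T cells stably carrying an SMN2-luciferase reporter; luminescence after 72 hours, normalized to negative-control siRNA, log10-transformed, MAD-scored.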

Row | Sequence | median seed-adjusted z-score
1 | CAAGAAUUCCGAUUUCCAATT against GNGT2 | inactive: -0.289
2 | GAGCCUUAUGUGGAACAUATT against USP48 | inactive: 0.397
3 | GGGAGAAUGCUAUUAAUCATT against ZNF425 | inactive: 0.0841
4 | CGCUGCGGCUGAUCCAUAUTT against TRPM5 | inactive: -0.0565
5 | GAGCGAAGAUGUCCGAAAATT against MIPEP | inactive: -0.169
6 | AAAGGUCGAUUGUAAUGGATT against PROK2 | inactive: -0.00826
7 | GGAUCUCAAUGGAGGAUUUTT against PCTK2 | inactive: -0.497
8 | GACCUUUAGUCGUCGGUAUTT against ZNF546 | inactive: 0.497
9 | GCUUGCCCGAGUUUCCUUUTT against KLF15 | inactive: -0.45
10 | GCCCUCCUGUGCAACCAUATT against SPRR2G | inactive: 0.358
11 | GCAUCCGCGUUGUGGAAAATT against MYBPC2 | inactive: 0.18
12 | CCUUUAUCCCGCCUCCCUATT against HLF | inactive: 0.0548
13 | GGACACGAACAAAACCUUATT against RASD1 | inactive: 0.674
14 | GACUUAUGUGGAAUCUAUATT against ADAL | inactive: 0.145
15 | CUCGUGUCCCAAAACCAUATT against SNTA1 | inactive: 0.212
16 | GAAACAUCCGUGAAAGAGATT against RABL4 | inactive: -0.154
17 | CCUUAUUCAUCCUCUAGUATT against ATN1 | inactive: -0.357
18 | GGUAUUGUUUUAGCCCUGATT against TPBG | inactive: -0.128
19 | GCAAGUUAAAGAAUAUCGATT against KIF20B | inactive: 0
20 | GUAAAAUUGUGAUGGAACUTT against OTUD4 | inactive: 0.167
21 | GAAUUACGGAGUCAACAAATT against PITRM1 | inactive: -0.0959
22 | AGACCAUAACUACUCACUATT against KDELR3 | inactive: 0.476
23 | CCACGUAACUAUCAUAAGATT against TLL1 | inactive: 0.396

Row | Sequence | median seed-adjusted z-score
24 | CAUUGAAACACCUCACAAATT against CCNE2 | inactive: 0.801
25 | GUAUUGGGACAGUUCUAUUTT against NLN | inactive: 0.248
26 | GCUUCAGACAUGCCUGAAATT against HM13 | inactive: 0.134
27 | CACCAGCUAUGAACGAGAATT against THOC2 | active: -1.22
28 | CACCGAGAUUUCUACAACATT against AMPD2 | inactive: 0.214
29 | CACUGAUCUUCUCACUCAATT against PAH | inactive: 0.487
30 | CCAAGAUCCCAAUCAGUCUTT against OXSR1 | inactive: -0.0682
31 | CUCUUGCCGGGACAACAAATT against RXRB | inactive: 0.147
32 | CCUUAUCGCUAGAUGUCAATT against GRM3 | inactive: -0.401
33 | GUUUCUGAUUUAAUAGACATT against ZNF781 | inactive: 0.0307
34 | CGAAUGCUGAGGCUACAAATT against SLC9A5 | inactive: -0.545
35 | GGACAGUGCUGCCCUUUGATT against CYP11B1 | inactive: -0.199
36 | GAGCCGUUGGACUUCCUUUTT against GPR162 | inactive: 0.195
37 | GGACGGCAAAGUACGUAAATT against MAK10 | inactive: 0.124
38 | GCUAAACAGUUCGCAAGGATT against IGF2R | inactive: 0.274
39 | GCAGGAUAGAAUCACUUGATT against LCMT1 | inactive: 0.821
40 | GUACCUGCAUUGUAAACGATT against ATP13A3 | inactive: -0.619
41 | CAGCCCUUGUUCUCAUCAATT against RORC | inactive: -0.243
42 | CGAAGUUUUUAAUUACUCATT against PRKD1 | inactive: -0.323
43 | GAUGGAUCCUUCAAUCAUATT against TAF2 | inactive: -0.243
44 | CGCUACAUCUUCGACCUCUTT against BUD31 | inactive: 0.0554
45 | GGUCCUUACUUCUUAUGGATT against ABHD3 | inactive: -0.126
46 | GCAUAUAUCAAGAAUUCAATT against CLIC4 | inactive: -0.498

Individual results from the results shown.
For median seed-adjusted z-score, AGACCAUAACUACUCACUATT against KDELR3 is listed with inactive: 0.476
For median seed-adjusted z-score, CUCUUGCCGGGACAACAAATT against RXRB is listed with inactive: 0.147
For median seed-adjusted z-score, GUACCUGCAUUGUAAACGATT against ATP13A3 is listed with inactive: -0.619

Additional records:

Row | Sequence | median seed-adjusted z-score
47 | GGCUGUAGUUUGGAUGAUUTT against APLN | inactive: 0.0181
48 | UUCUUUUCACGAUAACUUUTT against KRTAP9-3 | inactive: -0.184
49 | GGAUUACCAUCACCGGAAATT against LSR | inactive: 0.306
50 | GGAGCAUCUUCACACGCAATT against LCP2 | inactive: -0.826
51 | CUACCUCUACUACUGGUUATT against LRRC17 | inactive: 0.0234
52 | CCAUUGUAGUGACCCUAGUTT against FREM3 | inactive: -0.565
53 | GGGUGAACAAAAUCAGUUUTT against DGKI | inactive: -0.417
54 | CAUUACUUCGAGACACUAUTT against NGLY1 | inactive: -0.0453
55 | GGCGCACGCUUUUCUCUAATT against ACTR1A | active: 1.28
56 | GAACCAAGAUGAAUAGCAATT against HRH4 | inactive: 0.247
57 | CAAAUGAGGGUGUAAUUGATT against SFRS6 | inactive: 0.378
58 | ACAUCGGACCAGCACCUGATT against CA11 | inactive: -0.0741
59 | CACCCGAAGUGAACCUAUUTT against CD200R2 | inactive: -0.772
60 | GGGUCAUGGAGACAAACUATT against DHRS7B | inactive: 0.294
61 | CUUUGUCUAUGUCACCAUUTT against IMP5 | inactive: 0.559
62 | GGAUCAUGGGUGUCAUCUATT against ABCC3 | inactive: -0.549
63 | GCAUAUUGCUUGUAACUCATT against AKAP13 | inactive: 0.654
64 | GAAUAAGUGACUAUCCAAATT against SENP2 | inactive: 0
65 | GCAUGAUGGAUGUUGAUCATT against CCT5 | inactive: 0
66 | GCAAAGAGCAAGAACCAAATT against ONECUT2 | inactive: -0.696
67 | GGAGGGUACCUGUUUGGUUTT against CHI3L2 | inactive: 0.374
68 | CUUCAUCUUUUACACCAUUTT against SLC35B2 | inactive: -0.313
69 | CUGCCUAUGCUGCUAGGAATT against SDSL | inactive: 0
